Assay results: patent publication US20090054720A1, “Use of histone deacetylase inhibitors in combination with radiation for the treatment of cancer” (priority 2002, published 2009)
Where two headings read alike, the source gives them in different places.

Tests used:
[1] = system: prostate tumor xenografts; conditions: nude mice (Butler et al. 2000); cited from earlier work
LNCaP spheroids = conditions: SAHA alone

O=C(CCCCCCC(=O)Nc1ccccc1)NO [SAHA, Suberoylanilide hydroxamic acid]
inhibition of tumor xenografts [1]: inhibition of prostate tumor xenografts | Ki67 staining (proliferation) (LNCaP spheroids; at the end of the 96 h incubation with SAHA (5 μM)): virtually all cells making up the spheroids have stopped cycling | Ki67 staining (proliferation) (LNCaP spheroids; within 6 to 24 hours after the end of 96 h SAHA incubation): faint positive Ki67 staining
